No constants are given. Whether binding was seen depends on the method and setting. Some results given as binding are weak or reduced against the parent protein; the word gives no strength. Blank lines part the entries; values can stand above or below the binder they belong to.
Legend:
[1] = target: T1, p66CH2CB WT (N-terminal domains CH2 and CB of p66Shc, residues 1-150) (UniProt P29353); assay: native gel or EMSA; BN-PAGE; 15 μg p66CH2CB with 30 μg decameric Prx1-Cys52Ser and 5/10/20 μg Trx1 in the presence of 3 mM EDTA; both purified
T1 sequence: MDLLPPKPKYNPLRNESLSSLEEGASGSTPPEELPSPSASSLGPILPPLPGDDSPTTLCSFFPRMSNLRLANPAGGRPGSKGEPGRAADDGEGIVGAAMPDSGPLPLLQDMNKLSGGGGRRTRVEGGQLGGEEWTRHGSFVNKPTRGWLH

p66CH2CB-Cys59Ser = target: T2, p66CH2CB-Cys59Ser (UniProt P29353); assay: native gel or EMSA; BN-PAGE of purified recombinant proteins incubated for 1 hour at room temperature (20 μg p66CH2CB with 40 μg Prx1 WT or 20 μg Prx1-Cys83Ser); bands cut out and separated in a second, denaturing SDS-PAGE dimension; both purified
T2 sequence: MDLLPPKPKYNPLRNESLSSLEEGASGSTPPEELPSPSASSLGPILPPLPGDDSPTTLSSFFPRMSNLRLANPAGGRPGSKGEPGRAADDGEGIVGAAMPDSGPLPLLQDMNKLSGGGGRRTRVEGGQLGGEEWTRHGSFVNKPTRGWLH

[2] = target: T3, Peroxiredoxin 1 (Prx1) WT, recombinant (mouse), P35700; assay: non-reducing SDS-PAGE (disulfide-linked forms); 10 μg p66CH2CB incubated with Prx1 for 1 hour at room temperature (or with 0.005 % H2O2); loading buffer devoid of reducing agents, 5 min at 95 °C; both purified; conditions: remark: other sources report otherwise
T3 chain: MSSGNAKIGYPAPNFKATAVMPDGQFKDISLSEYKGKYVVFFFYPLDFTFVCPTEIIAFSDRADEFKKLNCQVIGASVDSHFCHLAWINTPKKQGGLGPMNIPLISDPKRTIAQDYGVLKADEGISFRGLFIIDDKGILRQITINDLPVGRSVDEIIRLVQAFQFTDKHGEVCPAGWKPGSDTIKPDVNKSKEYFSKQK

[3] = target: T1, p66CH2CB WT (N-terminal domains CH2 and CB of p66Shc, residues 1-150); assay: native gel or EMSA; BN-PAGE of purified recombinant proteins incubated for 1 hour at room temperature (20 μg p66CH2CB with 40 μg Prx1 WT or 20 μg Prx1-Cys83Ser); bands cut out and separated in a second, denaturing SDS-PAGE dimension; both purified
[4] = target: T1, p66CH2CB WT (N-terminal domains CH2 and CB of p66Shc, residues 1-150); assay: non-reducing SDS-PAGE (disulfide-linked forms); 10 μg p66CH2CB incubated with Prx1 for 1 hour at room temperature (or with 0.005 % H2O2); loading buffer devoid of reducing agents, 5 min at 95 °C; both purified

B1: Prx1-Cys52Ser (enzyme, UniProt P35700 1-199)
chain: MSSGNAKIGYPAPNFKATAVMPDGQFKDISLSEYKGKYVVFFFYPLDFTFVSPTEIIAFSDRADEFKKLNCQVIGASVDSHFCHLAWINTPKKQGGLGPMNIPLISDPKRTIAQDYGVLKADEGISFRGLFIIDDKGILRQITINDLPVGRSVDEIIRLVQAFQFTDKHGEVCPAGWKPGSDTIKPDVNKSKEYFSKQK
binding [1]: binds

B2: Peroxiredoxin 1 (Prx1) WT, recombinant (enzyme, UniProt P35700 1-199)
chain: MSSGNAKIGYPAPNFKATAVMPDGQFKDISLSEYKGKYVVFFFYPLDFTFVCPTEIIAFSDRADEFKKLNCQVIGASVDSHFCHLAWINTPKKQGGLGPMNIPLISDPKRTIAQDYGVLKADEGISFRGLFIIDDKGILRQITINDLPVGRSVDEIIRLVQAFQFTDKHGEVCPAGWKPGSDTIKPDVNKSKEYFSKQK
binding (p66CH2CB-Cys59Ser): binds

B3: Peroxiredoxin 1 (Prx1) WT, recombinant, P35700 1-199 (enzyme)
chain: MSSGNAKIGYPAPNFKATAVMPDGQFKDISLSEYKGKYVVFFFYPLDFTFVCPTEIIAFSDRADEFKKLNCQVIGASVDSHFCHLAWINTPKKQGGLGPMNIPLISDPKRTIAQDYGVLKADEGISFRGLFIIDDKGILRQITINDLPVGRSVDEIIRLVQAFQFTDKHGEVCPAGWKPGSDTIKPDVNKSKEYFSKQK
binding [2]: binds

Next, values leading:

binding [3]: binds
binding (p66CH2CB-Cys59Ser): binds
B4: Prx1-Cys83Ser (enzyme, UniProt P35700 1-199)
chain: MSSGNAKIGYPAPNFKATAVMPDGQFKDISLSEYKGKYVVFFFYPLDFTFVCPTEIIAFSDRADEFKKLNCQVIGASVDSHFSHLAWINTPKKQGGLGPMNIPLISDPKRTIAQDYGVLKADEGISFRGLFIIDDKGILRQITINDLPVGRSVDEIIRLVQAFQFTDKHGEVCPAGWKPGSDTIKPDVNKSKEYFSKQK

binding [4]: binds
B5: p66CH2CB WT (N-terminal domains CH2 and CB of p66Shc, residues 1-150) (domain or fragment, UniProt P29353-1 1-150)
chain: MDLLPPKPKYNPLRNESLSSLEEGASGSTPPEELPSPSASSLGPILPPLPGDDSPTTLCSFFPRMSNLRLANPAGGRPGSKGEPGRAADDGEGIVGAAMPDSGPLPLLQDMNKLSGGGGRRTRVEGGQLGGEEWTRHGSFVNKPTRGWLH

Reference: article PMC2806001
